Reference: article PMC11695203, “A new peptide inhibitor of C1QBP exhibits potent anti‐tumour activity against triple negative breast cancer by impairing mitochondrial function and suppressing homologous recombination repair” (Clinical and Translational Medicine, 2025)
These are yes or no findings as the source states them, for the method shown. In cells and extracts the contact can be indirect. Here binding means that the protein was enriched with, or labelled near, the bait; the list need not be complete.

Protein sequences, listed by entry. Tags and fused reporters are not part of them. Residues count along the entry.
UniProt Q07021, residues 74-282: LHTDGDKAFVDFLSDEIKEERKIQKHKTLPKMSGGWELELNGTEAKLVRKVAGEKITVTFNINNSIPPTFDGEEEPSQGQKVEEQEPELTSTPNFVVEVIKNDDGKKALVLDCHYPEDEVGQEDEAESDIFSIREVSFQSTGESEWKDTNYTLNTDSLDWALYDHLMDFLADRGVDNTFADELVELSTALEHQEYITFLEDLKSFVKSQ

T1: biotin-labelled PDBAG1 (human (peptide identified in patients' adipose tissue))
T1 sequence (peptide, biotin label (position not stated)): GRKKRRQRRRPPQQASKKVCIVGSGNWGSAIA


Molecular target: T1, biotin-labelled PDBAG1 (human (peptide identified in patients' adipose tissue))
Assay: affinity purification with mass spectrometry; biotin-labelled PDBAG1 on streptavidin magnetic beads, incubated overnight at 4°C with MDA-MB-231 / MDA-MB-468 lysate in IP lysis buffer; silver-stained gel strips (around 150 and 30 kDa) analysed by LC–MS; only the target purified

Molecule | binding
C1QBP (endogenous) (from UniProt Q07021 74-282) | binds
DHX57 (endogenous) (protein, UniProt Q6P158 1-1386) MSSSVRRKGKPGKGGGKGSSRGGRGGRSHASKSHGSGGGGGGGGGGGGGNRKASSRIWDDGDDFCIFSESRRPSRPSNSNISKGESRPKWKPKAKVPLQTLHMTSENQEKVKALLRDLQEQDADAGSERGLSGEEEDDEPDCCNDERYWPAGQEPSLVPDLDPLEYAGLASVEPYVPEFTVSPFAVQKLSRYGFNTERCQAVLRMCDGDVGASLEHLLTQCFSETFGERMKISEAVNQISLDECMEQRQEEAFALKSICGEKFIERIQNRVWTIGLELEYLTSRFRKSKPKESTKNVQENSLEICKFYLKGNCKFGSKCRFKHEVPPNQIVGRIERSVDDSHLNAIEDASFLYELEIRFSKDHKYPYQAPLVAFYSTNENLPLACRLHISEFLYDKALTFAETSEPVVYSLITLLEEESEIVKLLTNTHHKYSDPPVNFLPVPSRTRINNPACHKTVIPNNSFVSNQIPEVEKASESEESDEDDGPAPVIVENESYVNLKKKISKRYDWQAKSVHAENGKICKQFRMKQASRQFQSILQERQSLPAWEERETILNLLRKHQVVVISGMTGCGKTTQIPQFILDDSLNGPPEKVANIICTQPRRISAISVAERVAKERAERVGLTVGYQIRLESVKSSATRLLYCTTGVLLRRLEGDTALQGVSHIIVDEVHERTEESDFLLLVLKDIVSQRPGLQVILMSATLNAELFSDYFNSCPVITIPGRTFPVDQFFLEDAIAVTRYVLQDGSPYMRSMKQISKEKLKARRNRTAFEEVEEDLRLSLHLQDQDSVKDAVPDQQLDFKQLLARYKGVSKSVIKTMSIMDFEKVNLELIEALLEWIVDGKHSYPPGAILVFLPGLAEIKMLYEQLQSNSLFNNRRSNRCVIHPLHSSLSSEEQQAVFVKPPAGVTKIIISTNIAETSITIDDVVYVIDSGKMKEKRYDASKGMESLEDTFVSQANALQRKGRAGRVASGVCFHLFTSHHYNHQLLKQQLPEIQRVPLEQLCLRIKILEMFSAHNLQSVFSRLIEPPHTDSLRASKIRLRDLGALTPDERLTPLGYHLASLPVDVRIGKLMLFGSIFRCLDPALTIAASLAFKSPFVSPWDKKEEANQKKLEFAFANSDYLALLQAYKGWQLSTKEGVRASYNYCRQNFLSGRVLQEMASLKRQFTELLSDIGFAREGLRAREIEKRAQGGDGVLDATGEEANSNAENPKLISAMLCAALYPNVVQVKSPEGKFQKTSTGAVRMQPKSAELKFVTKNDGYVHIHPSSVNYQVRHFDSPYLLYHEKIKTSRVFIRDCSMVSVYPLVLFGGGQVNVQLQRGEFVVSLDDGWIRFVAASHQVAELVKELRCELDQLLQDKIKNPSIDLCTCPRGSRIISTIVKLVTTQ | binds
SLC25A22 (endogenous) (protein, UniProt Q9H936 1-323) MADKQISLPAKLINGGIAGLIGVTCVFPIDLAKTRLQNQQNGQRVYTSMSDCLIKTVRSEGYFGMYRGAAVNLTLVTPEKAIKLAANDFFRHQLSKDGQKLTLLKEMLAGCGAGTCQVIVTTPMEMLKIQLQDAGRIAAQRKILAAQGQLSAQGGAQPSVEAPAAPRPTATQLTRDLLRSRGIAGLYKGLGATLLRDVPFSVVYFPLFANLNQLGRPASEEKSPFYVSFLAGCVAGSAAAVAVNPCDVVKTRLQSLQRGVNEDTYSGILDCARKILRHEGPSAFLKGAYCRALVIAPLFGIAQVVYFLGIAESLLGLLQDPQA | binds
MYBBP1 (endogenous) (protein, UniProt Q9BQG0 1-1328) MESRDPAQPMSPGEATQSGARPADRYGLLKHSREFLDFFWDIAKPEQETRLAATEKLLEYLRGRPKGSEMKYALKRLITGLGVGRETARPCYSLALAQLLQSFEDLPLCSILQQIQEKYDLHQVKKAMLRPALFANLFGVLALFQSGRLVKDQEALMKSVKLLQALAQYQNHLQEQPRKALVDILSEVSKATLQEILPEVLKADLNIILSSPEQLELFLLAQQKVPSKLKKLVGSVNLFSDENVPRLVNVLKMAASSVKKDRKLPAIALDLLRLALKEDKFPRFWKEVVEQGLLKMQFWPASYLCFRLLGAALPLLTKEQLHLVMQGDVIRHYGEHVCTAKLPKQFKFAPEMDDYVGTFLEGCQDDPERQLAVLVAFSSVTNQGLPVTPTFWRVVRFLSPPALQGYVAWLRAMFLQPDLDSLVDFSTNNQKKAQDSSLHMPERAVFRLRKWIIFRLVSIVDSLHLEMEEALTEQVARFCLFHSFFVTKKPTSQIPETKHPFSFPLENQAREAVSSAFFSLLQTLSTQFKQAPGQTQGGQPWTYHLVQFADLLLNHSHNVTTVTPFTAQQRQAWDRMLQTLKELEAHSAEARAAAFQHLLLLVGIHLLKSPAESCDLLGDIQTCIRKSLGEKPRRSRTKTIDPQEPPWVEVLVEILLALLAQPSHLMRQVARSVFGHICSHLTPRALQLILDVLNPETSEDENDRVVVTDDSDERRLKGAEDKSEEGEDNRSSESEEESEGEESEEEERDGDVDQGFREQLMTVLQAGKALGGEDSENEEELGDEAMMALDQSLASLFAEQKLRIQARRDEKNKLQKEKALRRDFQIRVLDLVEVLVTKQPENALVLELLEPLLSIIRRSLRSSSSKQEQDLLHKTARIFTHHLCRARRYCHDLGERAGALHAQVERLVQQAGRQPDSPTALYHFNASLYLLRVLKGNTAEGCVHETQEKQKAGTDPSHMPTGPQAASCLDLNLVTRVYSTALSSFLTKRNSPLTVPMFLSLFSRHPVLCQSLLPILVQHITGPVRPRHQACLLLQKTLSMREVRSCFEDPEWKQLMGQVLAKVTENLRVLGEAQTKAQHQQALSSLELLNVLFRTCKHEKLTLDLTVLLGVLQGQQQSLQQGAHSTGSSRLHDLYWQAMKTLGVQRPKLEKKDAKEIPSATQSPISKKRKKKGFLPETKKRKKRKSEDGTPAEDGTPAATGGSQPPSMGRKKRNRTKAKVPAQANGTPTTKSPAPGAPTRSPSTPAKSPKLQKKNQKPSQVNGAPGSPTEPAGQKQHQKALPKKGVLGKSPLSALARKKARLSLVIRSPSLLQSGAKKKAQVRKAGKP | binds
TCOF1 (endogenous) (protein, UniProt Q13428 1-1488) MAEARKRRELLPLIYHHLLRAGYVRAAREVKEQSGQKCFLAQPVTLLDIYTHWQQTSELGRKRKAEEDAALQAKKTRVSDPISTSESSEEEEEAEAETAKATPRLASTNSSVLGADLPSSMKEKAKAETEKAGKTGNSMPHPATGKTVANLLSGKSPRKSAEPSANTTLVSETEEEGSVPAFGAAAKPGMVSAGQADSSSEDTSSSSDETDVEGKPSVKPAQVKASSVSTKESPARKAAPAPGKVGDVTPQVKGGALPPAKRAKKPEEESESSEEGSESEEEAPAGTRSQVKASEKILQVRAASAPAKGTPGKGATPAPPGKAGAVASQTKAGKPEEDSESSSEESSDSEEETPAAKALLQAKASGKTSQVGAASAPAKESPRKGAAPAPPGKTGPAVAKAQAGKREEDSQSSSEESDSEEEAPAQAKPSGKAPQVRAASAPAKESPRKGAAPAPPRKTGPAAAQVQVGKQEEDSRSSSEESDSDREALAAMNAAQVKPLGKSPQVKPASTMGMGPLGKGAGPVPPGKVGPATPSAQVGKWEEDSESSSEESSDSSDGEVPTAVAPAQEKSLGNILQAKPTSSPAKGPPQKAGPVAVQVKAEKPMDNSESSEESSDSADSEEAPAAMTAAQAKPALKIPQTKACPKKTNTTASAKVAPVRVGTQAPRKAGTATSPAGSSPAVAGGTQRPAEDSSSSEESDSEEEKTGLAVTVGQAKSVGKGLQVKAASVPVKGSLGQGTAPVLPGKTGPTVTQVKAEKQEDSESSEEESDSEEAAASPAQVKTSVKKTQAKANPAAARAPSAKGTISAPGKVVTAAAQAKQRSPSKVKPPVRNPQNSTVLARGPASVPSVGKAVATAAQAQTGPEEDSGSSEEESDSEEEAETLAQVKPSGKTHQIRAALAPAKESPRKGAAPTPPGKTGPSAAQAGKQDDSGSSSEESDSDGEAPAAVTSAQVIKPPLIFVDPNRSPAGPAATPAQAQAASTPRKARASESTARSSSSESEDEDVIPATQCLTPGIRTNVVTMPTAHPRIAPKASMAGASSSKESSRISDGKKQEGPATQVSKKNPASLPLTQAALKVLAQKASEAQPPVARTQPSSGVDSAVGTLPATSPQSTSVQAKGTNKLRKPKLPEVQQATKAPESSDDSEDSSDSSSGSEEDGEGPQGAKSAHTLGPTPSRTETLVEETAAESSEDDVVAPSQSLLSGYMTPGLTPANSQASKATPKLDSSPSVSSTLAAKDDPDGKQEAKPQQAAGMLSPKTGGKEAASGTTPQKSRKPKKGAGNPQASTLALQSNITQCLLGQPWPLNEAQVQASVVKVLTELLEQERKKVVDTTKESSRKGWESRKRKLSGDQPAARTPRSKKKKKLGAGEGGEASVSPEKTSTTSKGKAKRDKASGDVKEKKGKGSLGSQGAKDEPEEELQKGMGTVEGGDQSNPKSKKEKKKSDKRKKDKEKKEKKKKAKKASTKDSESPSQKKKKKKKKTAEQTV | binds
